# The list shows a part of the results.
# B1: EULS2 M3 (Oryza sativa) (protein)
# chain: MVYCRANPNYAMTARNGAVVLAPANPKDEYQHWIKDMRWSTSIKDEEGYPAFALVNKATGQAIKHSLGQSHPVRLVPYNPEVMDESVLWTESRDVGNGFRCIRMVNNIYLNFDAFHGDKYHGGVRDGTDIVLWKLCEGDSLRWKIQPYYILEQKLISEEDLNSAVDHHHHHH
# Legend:
# Assay in all cases: glycan array binding signal (z-score within array); higher = stronger binding
# Details in all cases: glycan notation: IUPAC condensed, linker removed
# [1] = molecular target: Fuc(a1-2)Gal(b1-4)GlcNAc(b1-3)Gal(b1-4)GlcNAc(b1-3)Gal(b1-4)GlcNAc
# Method in brief: (§1)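 From the Consortium for Functional Glycomics database, 3228 arrays were curated, keeping only those whose protein sequence was available. Binding is given as a within-array Z-score averaged across arrays sharing a protein sequence and across linkers. Negative Z-scores can be read as non-binding.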
# [2] = molecular target: Fuc(a1-2)Gal(b1-4)GlcNAc(b1-3)GalNAc
# Method in brief: as §1
# [3] = molecular target: Fuc(a1-2)Gal(b1-4)GlcNAc(b1-3)[Fuc(a1-2)Gal(b1-4)GlcNAc(b1-6)]GalNAc
# Method in brief: as §1
# [4] = molecular target: Fuc(a1-2)Gal(b1-4)GlcNAc(b1-3)[Fuc(a1-3)[Gal(b1-4)]GlcNAc(b1-6)]Gal(b1-4)Glc
# Method in brief: as §1
# [5] = molecular target: Fuc(a1-2)Gal(b1-4)GlcNAc(b1-6)GalNAc
# Method in brief: as §1
# [6] = molecular target: Fuc(a1-2)Gal(b1-4)GlcNAc6S
# Method in brief: as §1
# [7] = molecular target: Fuc(a1-2)Gal(b1-4)[Fuc(a1-3)]GlcNAc
# Method in brief: as §1
# [8] = molecular target: Fuc(a1-2)Gal(b1-4)[Fuc(a1-3)]GlcNAc(b1-2)Man(a1-3)[Fuc(a1-2)Gal(b1-4)[Fuc(a1-3)]GlcNAc(b1-2)Man(a1-6)]Man(b1-4)GlcNAc(b1-4)[Fuc(a1-6)]GlcNAc
# Method in brief: as §1
# [9] = molecular target: Fuc(a1-2)Gal(b1-4)[Fuc(a1-3)]GlcNAc(b1-2)[Fuc(a1-2)Gal(b1-4)[Fuc(a1-3)]GlcNAc(b1-4)]Man(a1-3)[Fuc(a1-2)Gal(b1-4)[Fuc(a1-3)]GlcNAc(b1-2)Man(a1-6)]Man(b1-4)GlcNAc(b1-4)GlcNAc
# Method in brief: as §1
# [10] = molecular target: Fuc(a1-2)Gal(b1-4)[Fuc(a1-3)]GlcNAc(b1-3)Gal(b1-4)[Fuc(a1-3)]GlcNAc
# Method in brief: as §1
# [11] = molecular target: Fuc(a1-2)Gal(b1-4)[Fuc(a1-3)]GlcNAc(b1-3)Gal(b1-4)[Fuc(a1-3)]GlcNAc(b1-3)Gal(b1-4)[Fuc(a1-3)]GlcNAc
# Method in brief: as §1
# [12] = molecular target: Fuc(a1-2)Gal(b1-4)[Fuc(a1-3)]GlcNAc(b1-3)GalNAc
# Method in brief: as §1
# [13] = molecular target: Fuc(a1-2)Gal(b1-4)[Fuc(a1-3)]GlcNAc(b1-3)[Neu5Ac(a2-6)Gal(b1-4)GlcNAc(b1-6)]Gal(b1-4)Glc
# Method in brief: as §1
# [14] = molecular target: Fuc(a1-2)Gal3S(b1-4)GlcNAc
# Method in brief: as §1
# [15] = molecular target: Fuc(a1-2)Gal6S(b1-3)GlcNAc
# Method in brief: as §1
# [16] = molecular target: Fuc(a1-2)Gal6S(b1-3)GlcNAc6S
# Method in brief: as §1
# Fuc(a1-2)Gal6S(b1-4)Glc = molecular target: Fuc(a1-2)Gal6S(b1-4)Glc
# Method in brief: as §1
# [17] = molecular target: Fuc(a1-2)Gal6S(b1-4)Glc6S
# Method in brief: as §1
# Fuc(a1-2)[Gal(a1-3)]Gal = molecular target: Fuc(a1-2)[Gal(a1-3)]Gal
# Method in brief: as §1
# [18] = molecular target: Fuc(a1-2)[Gal(a1-3)]Gal(b1-3)GalNAc
# Method in brief: as §1
# [19] = molecular target: Fuc(a1-2)[Gal(a1-3)]Gal(b1-3)GalNAc(b1-3)Gal(a1-4)Gal(b1-4)Glc
# Method in brief: as §1
# [20] = molecular target: Fuc(a1-2)[Gal(a1-3)]Gal(b1-3)GlcNAc
# Method in brief: as §1
# [21] = molecular target: Fuc(a1-2)[Gal(a1-3)]Gal(b1-3)GlcNAc(b1-2)Man(a1-3)[Fuc(a1-2)[Gal(a1-3)]Gal(b1-3)GlcNAc(b1-2)Man(a1-6)]Man(b1-4)GlcNAc(b1-4)GlcNAc
# Method in brief: as §1
# [22] = molecular target: Fuc(a1-2)[Gal(a1-3)]Gal(b1-3)GlcNAc(b1-2)Man(a1-3)[Fuc(a1-2)[Gal(a1-3)]Gal(b1-3)GlcNAc(b1-2)Man(a1-6)]Man(b1-4)GlcNAc(b1-4)[Fuc(a1-6)]GlcNAc
# Method in brief: as §1
# [23] = molecular target: Fuc(a1-2)[Gal(a1-3)]Gal(b1-3)GlcNAc(b1-3)GalNAc
# Method in brief: as §1
# [24] = molecular target: Fuc(a1-2)[Gal(a1-3)]Gal(b1-3)GlcNAc(b1-6)GalNAc
# Method in brief: as §1
# [25] = molecular target: Fuc(a1-2)[Gal(a1-3)]Gal(b1-4)Glc
# Method in brief: as §1
# [26] = molecular target: Fuc(a1-2)[Gal(a1-3)]Gal(b1-4)GlcNAc
# Method in brief: as §1
# [27] = molecular target: Fuc(a1-2)[Gal(a1-3)]Gal(b1-4)GlcNAc(b1-2)Man
# Method in brief: as §1
# [28] = molecular target: Fuc(a1-2)[Gal(a1-3)]Gal(b1-4)GlcNAc(b1-2)Man(a1-3)[Fuc(a1-2)[Gal(a1-3)]Gal(b1-4)GlcNAc(b1-2)Man(a1-6)]Man(b1-4)GlcNAc(b1-4)GlcNAc
# Method in brief: as §1
binder,measurement,setting,value
B1,glycan array binding signal (z-score),[1],-0.805
same,glycan array binding signal (z-score),[2],-0.15
same,glycan array binding signal (z-score),[3],1.38
same,glycan array binding signal (z-score),[4],-0.313
same,glycan array binding signal (z-score),[5],0.029
same,glycan array binding signal (z-score),[6],-0.605
same,glycan array binding signal (z-score),[7],0.165
same,glycan array binding signal (z-score),[8],0.196
same,glycan array binding signal (z-score),[9],-0.291
same,glycan array binding signal (z-score),[10],-0.306
same,glycan array binding signal (z-score),[11],0.687
same,glycan array binding signal (z-score),[12],1.06
same,glycan array binding signal (z-score),[13],-0.197
same,glycan array binding signal (z-score),[14],-0.367
same,glycan array binding signal (z-score),[15],-0.205
same,glycan array binding signal (z-score),[16],0.045
same,glycan array binding signal (z-score),Fuc(a1-2)Gal6S(b1-4)Glc,-0.48
same,glycan array binding signal (z-score),[17],-0.13
same,glycan array binding signal (z-score),Fuc(a1-2)[Gal(a1-3)]Gal,-0.564
same,glycan array binding signal (z-score),[18],0.04
same,glycan array binding signal (z-score),[19],-0.648
same,glycan array binding signal (z-score),[20],1.44
same,glycan array binding signal (z-score),[21],-0.156
same,glycan array binding signal (z-score),[22],-0.085
same,glycan array binding signal (z-score),[23],-0.065
same,glycan array binding signal (z-score),[24],-0.12
same,glycan array binding signal (z-score),[25],-0.301
same,glycan array binding signal (z-score),[26],-0.139
same,glycan array binding signal (z-score),[27],0.032
same,glycan array binding signal (z-score),[28],1.35

# Two entries from above, with bars between the fields.
binder | measurement | setting | value
B1 | glycan array binding signal (z-score) | Fuc(a1-2)[Gal(a1-3)]Gal | -0.564
same | glycan array binding signal (z-score) | [18] | 0.04

# — the supplement of paper PMC8728848
